These are yes or no findings as the source states them, for the method shown. In cells and extracts the contact can be indirect. A yes stands for co-enrichment or nearness to the bait. Other partners may have been found. Tags and fused reporters may be left off the sequences shown.
Molecular target: Flag-ACSS2 (acetyl-CoA synthetase 2) (human) (UniProt Q9NR19)
Assay: affinity purification with mass spectrometry; whole-cell extract of BON-1 cells with stable Flag-ACSS2 expression (NP-40 lysis buffer, 4 °C); Flag-tag Protein IP Assay Kit with magnetic beads; label-free MS; ACSS2^Flag vs EV

Chains of the proteins cited; added tags and fusions are not shown.
UniProt Q9NR19: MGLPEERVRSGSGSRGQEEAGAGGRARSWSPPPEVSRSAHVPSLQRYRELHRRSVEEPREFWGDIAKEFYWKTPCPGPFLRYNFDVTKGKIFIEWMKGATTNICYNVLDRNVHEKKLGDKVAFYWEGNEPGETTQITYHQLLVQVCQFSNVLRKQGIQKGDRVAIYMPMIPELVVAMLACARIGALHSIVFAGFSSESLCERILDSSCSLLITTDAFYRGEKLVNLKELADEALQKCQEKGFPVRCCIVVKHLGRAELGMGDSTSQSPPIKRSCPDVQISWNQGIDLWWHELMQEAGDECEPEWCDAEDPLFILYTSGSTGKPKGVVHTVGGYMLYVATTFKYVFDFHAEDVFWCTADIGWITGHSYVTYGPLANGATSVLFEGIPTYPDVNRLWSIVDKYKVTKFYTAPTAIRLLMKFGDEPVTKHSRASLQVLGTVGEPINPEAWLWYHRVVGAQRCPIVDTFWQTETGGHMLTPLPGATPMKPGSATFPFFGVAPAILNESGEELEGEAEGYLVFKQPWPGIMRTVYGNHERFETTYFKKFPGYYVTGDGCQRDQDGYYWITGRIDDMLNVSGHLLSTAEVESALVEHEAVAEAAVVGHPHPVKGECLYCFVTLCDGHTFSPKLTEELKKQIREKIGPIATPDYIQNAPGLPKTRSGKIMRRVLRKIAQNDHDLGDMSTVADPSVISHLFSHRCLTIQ

binding: binds
B1: Recombinant human AATF (natural protein, UniProt Q9NY61 1-560, looked up)
chain: MAGPQPLALQLEQLLNPRPSEADPEADPEEATAARVIDRFDEGEDGEGDFLVVGSIRKLASASLLDTDKRYCGKTTSRKAWNEDHWEQTLPGSSDEEISDEEGSGDEDSEGLGLEEYDEDDLGAAEEQECGDHRESKKSRSHSAKTPGFSVQSISDFEKFTKGMDDLGSSEEEEDEESGMEEGDDAEDSQGESEEDRAGDRNSEDDGVVMTFSSVKVSEEVEKGRAVKNQIALWDQLLEGRIKLQKALLTTNQLPQPDVFPLFKDKGGPEFSSALKNSHKALKALLRSLVGLQEELLFQYPDTRYLVDGTKPNAGSEEISSEDDELVEEKKQQRRRVPAKRKLEMEDYPSFMAKRFADFTVYRNRTLQKWHDKTKLASGKLGKGFGAFERSILTQIDHILMDKERLLRRTQTKRSVYRVLGKPEPAAQPVPESLPGEPEILPQAPANAHLKDLDEEIFDDDDFYHQLLRELIERKTSSLDPNDQVAMGRQWLAIQKLRSKIHKKVDRKASKGRKLRFHVLSKLLSFMAPIDHTTMNDDARTELYRSLFGQLHPPDEGHGD
notes: Recombinant human AATF, the analyte in SPR; also called Che-1

Source: paper PMC12561415, “ACSS2/AATF Drives Soluble FasL‐Mediated CD8^+ T Cell Apoptosis in Pancreatic Neuroendocrine Tumors” (Advanced Science, 2025)
